Reference: PubChem BioAssay AID1224830 (NIAID, 2016)
In all, the deposit lists about 18,000 reagents; shown is a part drawn at random. In the full data, about 2,900 (16%) were called active. 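Calls are made per well; low scores hint the gene aids the LPS response, high scores that it dampens it.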 Entries without a mark were called inactive. Repeated entries: four replicate wells of each siRNA pool.

Purpose: 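Regulators of TLR4 signalling towards TNF-alpha in macrophage-like cells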 (primary screen)
Cells: human THP-1 monocytic leukaemia cells, TNF dual-luciferase reporter clone, PMA-differentiated to macrophage-like cells
Reagent: siRNA pool against human genes, 50 nM
Timing: LPS for 4 h, given about 3 days after siRNA transfection
Conditions: bacterial LPS (TLR4 ligand), 10 ng/ml
Read-out: 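TNF firefly reporter luminescence divided by renilla, normalised to the plate median, then turned into a robust z-score for each replicate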
Reading the numbers: TNF reporter robust z-score: higher = stronger TNF reporter response to LPS
Hit rule: 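a well is active when its z-score exceeds 2.8 or falls below -1.5; control wells carry no call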

Gene	TNF reporter robust z-score
CHMP6	-0.73
CHMP6	-0.05
CHMP6	-0.93
CHMP6	0.24
KCNA3	-0.63
KCNA3	-0.29
KCNA3	-0.69
KCNA3	-0.13
VASH2	0.47
VASH2	0.06
VASH2	-0.05
VASH2	0.12
SFXN2	-1.06
SFXN2	0.05
SFXN2	-0.13
SFXN2	0.1
STK38L	-0.61
STK38L	2.41
STK38L	1.57
STK38L	0.97
NR4A1	-1.81 (active)
NR4A1	-1.62 (active)
NR4A1	-1.94 (active)
NR4A1	-1.87 (active)
PECAM1	0.01
PECAM1	0.21
PECAM1	-0.67
PECAM1	0.54
RNMT	0.12
RNMT	0.77
RNMT	-0.01
RNMT	0.83
PLA2G12B	-0.41
PLA2G12B	0.15
PLA2G12B	0.49
PLA2G12B	1.03
ARFGEF1	-0.71
ARFGEF1	3.13 (active)
ARFGEF1	0.17
ARFGEF1	0.66
LY6H	1.16
LY6H	0.84
LY6H	1.19
LY6H	0.66
NSG1	0.33
NSG1	0.35
NSG1	0.6
GPR61	-0.36
GPR61	1.91
GPR61	-0.21
GPR61	0.33

11 of these entries, set out differently.
Gene | TNF reporter robust z-score
STK38L | 2.41
STK38L | 1.57
STK38L | 0.97
NR4A1 | -1.81 (active)
NR4A1 | -1.62 (active)
NR4A1 | -1.94 (active)
NR4A1 | -1.87 (active)
PECAM1 | 0.01
PECAM1 | 0.21
PECAM1 | -0.67
PECAM1 | 0.54

Additional records follow.
Gene	TNF reporter robust z-score
TAL2	-0.66
TAL2	-0.14
TAL2	-0.75
TAL2	0.06
TLE5	1.37
TLE5	1.59
TLE5	-0.09
TLE5	-0.33
CDK5RAP2	1.17
CDK5RAP2	0.83
CDK5RAP2	1.3
CDK5RAP2	0.56
CORIN	-2.18 (active)
CORIN	-0.47
CORIN	0.27
CORIN	-0.58
ASB12	-0.82
ASB12	-1.9 (active)
ASB12	-1.52 (active)
ASB12	-0.66
COA6	1.45
COA6	1.86
COA6	0.84
COA6	1.47
ENY2	2.47
ENY2	1.4
ENY2	0.41
ENY2	0.38
DNAJB14	-0.74
DNAJB14	0.47
DNAJB14	-1.18
DNAJB14	0.93
SPATA9	0.47
SPATA9	0.1
SPATA9	-0.22
SPATA9	0.11
SIRAL1	-1.2
SIRAL1	0.77
SIRAL1	-1.25
SIRAL1	0.43
DSG4	1.86
DSG4	1.96
DSG4	-0.27
DSG4	-0.35
ARHGEF10L	0.39
ARHGEF10L	1.38
ARHGEF10L	0.31
ARHGEF10L	2.41
TRIM35	-0.63
TRIM35	-0.79
TRIM35	-2.32 (active)
TRIM35	-1.53 (active)
GLI1	0.04
GLI1	1.69
GLI1	0.19
GLI1	1.55
OMD	-0.39
OMD	-0.17
OMD	-0.59
OMD	-0.83
